At least one structure is not confirmed: it was looked up by name or label, or the drawing left a doubt.
Assay: In vitro release kinetics of sirolimus/cilostazol stent coatings
Type: physicochemical

Q: With `CO[C@H]1C[C@@H]2CC[C@@H](C)[C@@](O)(O2)C(=O)C(=O)N2CCCC[C@H]2C(=O)O[C@H]([C@H](C)C[C@@H]2CC[C@@H](O)[C@H](OC)C2)CC(=O)[C@H](C)/C=C(\C)[C@@H](O)[C@@H](OC)C(=O)[C@H](C)C[C@H](C)/C=C/C=C/C=C/1C` [sirolimus] as the compound, how does the “drug release rate, 200 µg vs 100 µg BMA diffusion overcoat” value (configuration of FIG. 7 (200 µg BMA) compared with FIG. 9 (100 µg BMA), FIGS. 8 and 10) read?
A: Its value is “comparatively slower”.

Q: And the “in vitro release rate compared to the dual drug base coating” value (configuration of FIG. 7 vs FIG. 15)?
A: The value was “much faster rate”.

Q: And the in vitro release (single layer configuration of FIG. 15 (FIG. 14))?
A: The in vitro release was about 35%.

Source: US20120130481A1, “LOCAL VASCULAR DELIVERY OF ADENOSINE A2A RECEPTOR AGONISTS IN COMBINATION WITH OTHER AGENTS TO REDUCE MYOCARDIAL INJURY” (priority 2010, published 2012)
